From the supplement of paper PMC8047044
Counter-ions that a name gives are not always drawn. This is one part of the list. Many values rest on one well or one pass, so single values are uncertain.

What follows are compounds tested on Neuro-2a (assay: neurite formation score, plate-normalized to DMSO control mean 5.04 (score (0-8 scale)); higher = more or longer neurites). Details: 10 µM.
With `Cc1cc(C)nc(NS(=O)(=O)c2ccc(NC(=S)NC(=O)COc3ccc(Br)cc3Cl)cc2)n1` the neurite formation score was 3.85.
`O=C1c2ccc(Nc3ccc(F)cc3F)cc2CCc2ccc(OC[C@H](O)CO)cc21` [Skepinone-L] was tested, and the neurite formation score was 2.08.
In the case of `Cc1cc(Nc2cc(N3CCN(C)CC3)nc(/C=C/c3ccccc3)n2)n[nH]1`, the neurite formation score is reported as -0.256.
`Cc1cnc(Nc2ccc(N3CCN(C)CC3)cc2)nc1Nc1cccc(S(=O)(=O)NC(C)(C)C)c1` was tested, and the neurite formation score was 1.41.
Work on `Cn1sc(=O)n(Cc2ccccc2)c1=O` yielded a neurite formation score of 4.43.
In the case of `Cc1c(NC(=O)c2ccc(C(C)(C)C)cc2)cccc1-c1cn(C)c(=O)c(Nc2ccc(C(=O)N3CCOCC3)cc2)n1`, the neurite formation score is reported as 5.88.
`C=CCc1ccc(O)c(-c2ccc(O)c(CC=C)c2)c1` [Honokiol] gave a neurite formation score of 2.42.
`Cc1cc2c(F)c(Oc3ncnn4cc(OC[C@@H](C)OC(=O)[C@H](C)N)c(C)c34)ccc2[nH]1` gave a neurite formation score of 4.21.
In the case of `Cc1ccccc1-n1c(Cn2nc(-c3cccc(O)c3)c3c(N)ncnc32)nc2cccc(C)c2c1=O`, the neurite formation score is reported as 3.86.
`O=C(Cc1ccc(-c2ccc(OCCN3CCOCC3)cc2)cn1)NCc1ccccc1` [KX2-391 dihydrochloride] was tested, and the neurite formation score was 1.08.
With `O=C(NC(NC(=S)Nc1ccc(F)c([N+](=O)[O-])c1)C(Cl)(Cl)Cl)C(c1ccccc1)c1ccccc1` (centres undefined) the neurite formation score was 4.76.
In the case of `Nc1nccc(-c2c(-c3ccc(F)cc3)ncn2C2CCCCC2)n1`, the neurite formation score is reported as 3.41.
Work on `COc1cc(OC)c(/C=C/S(=O)(=O)Cc2ccc(OC)c(NCC(=O)O)c2)c(OC)c1` yielded a neurite formation score of 0.209.
Work on `CN1CCN(S(=O)(=O)c2ccc(-c3cnc(N)c(C(=O)Nc4cccnc4)n3)cc2)CC1` yielded a neurite formation score of 4.19.
Work on `Cc1cnc(Nc2ccc(F)cc2Cl)nc1-c1c[nH]c(C(=O)N[C@H](CO)c2cccc(Cl)c2)c1` yielded a neurite formation score of 3.08.
For `CN1C/C=C/CCOc2cccc(c2)-c2ccnc(n2)Nc2cccc(c2)C1`, the neurite formation score was 2.76.
In the case of `Cc1cnc(Nc2ccc(OCCN3CCCC3)cc2)nc1Nc1cccc(S(=O)(=O)NC(C)(C)C)c1`, the neurite formation score is reported as 0.744.
Work on `CNC(=O)c1cc(Oc2ccc(NC(=O)Nc3ccc(Cl)c(C(F)(F)F)c3)c(F)c2)ccn1` [Regorafenib hydrochloride] yielded a neurite formation score of 2.74.
`Oc1ccc2ccccc2c1SSc1c(O)ccc2ccccc12` was tested, and the neurite formation score was 4.86.
For `CNC(=O)c1ccccc1Sc1ccc2c(/C=C/c3ccccn3)n[nH]c2c1`, the neurite formation score was 4.52.
Compound `CCCS(=O)(=O)Nc1ccc(F)c(C(=O)c2c[nH]c3ncc(-c4ccc(Cl)cc4)cc23)c1F` [Vemurafenib (PLX4032, RG7204)] has a neurite formation score of 4.21.
With `COc1cc(C(=O)NC2CCN(C)CC2)ccc1Nc1ncc2c(n1)N(C1CCCC1)CC(F)(F)C(=O)N2C` the neurite formation score was 3.76.
Work on `Cc1nc(NC(=O)N2CCC[C@H]2C(N)=O)sc1-c1csc(C(C)(C)C)n1` yielded a neurite formation score of 4.19.
Compound `CN1CCN(c2nc(C3=C(c4c[nH]c5ccccc45)C(=O)NC3=O)c3ccccc3n2)CC1` [Sotrastaurin (AEB071)] has a neurite formation score of 5.43.
In the case of `CN([C@@H](Cc1ccc(OS(=O)(=O)c2cccc3cnccc23)cc1)C(=O)N1CCN(c2ccccc2)CC1)S(=O)(=O)c1cccc2cnccc12`, the neurite formation score is reported as 2.85.
With `Cc1cn(-c2cc(NC(=O)c3ccc(C)c(Nc4nccc(-c5cccnc5)n4)c3)cc(C(F)(F)F)c2)cn1` [Nilotinib monohydrochloride monohydrate] the neurite formation score was 3.42.
`C[C@@]1(C(=O)Nc2ccc(F)nc2)CCCN1c1nc(Nc2cc(C3CC3)n[nH]2)c2cccn2n1` gave a neurite formation score of 0.543.
`CS(=O)(=O)c1ccc(-c2cnc(N)c(C(=O)Nc3ccccc3)n2)cc1` showed a neurite formation score of 3.21.
`O=[N+]([O-])c1ccc(-c2nc(-c3ccc(F)cc3)c(-c3ccncc3)[nH]2)cc1` gave a neurite formation score of 3.43.
For `CC(C)(C)n1nc(Cc2cccc3ccccc23)c2c(N)ncnc21`, the neurite formation score was 2.76.
For `CCOc1ccc(Nc2ccc(/C(=C3C=C/C(=[N+](/CC)Cc4cccc(S(=O)(=O)[O-])c4)C=C/3C)c3ccc(N(CC)Cc4cccc(S(=O)(=O)O)c4)cc3C)cc2)cc1` [Brilliant Blue G], the neurite formation score was 2.86.
Compound `CC(C)(C)NS(=O)(=O)c1cncc(-c2cc(F)c3nc(N)nn3c2)c1` has a neurite formation score of 5.08.
Work on `CC1=CC(=O)C(C(C)C)=C/C1=N/OC(=O)c1ccccc1C` [Poloxin] yielded a neurite formation score of 0.41.
For `C=CC(=O)Nc1cccc(Nc2nc(Nc3ccc(NC4CN(CCF)C4)cc3OC)ncc2C(F)(F)F)c1`, the neurite formation score was 4.52.
`Nc1cc(C(F)(F)F)c(-c2cc(N3CCOCC3)nc(N3CCOCC3)n2)cn1` gave a neurite formation score of 0.543.
`O=c1sn(-c2cccc3ccccc23)c(=O)n1Cc1ccccc1` [Tideglusib] showed a neurite formation score of 4.86.
Compound `COc1cc2ncnc(Nc3cccc(Br)c3)c2cc1OC` has a neurite formation score of 4.42.
`Clc1ccc(Nc2nnc(Cc3ccncc3)c3ccccc23)cc1` [Vatalanib] was tested, and the neurite formation score was 3.74.
`CNC(=O)c1c(F)cccc1Nc1nc(Nc2cc3c(cc2OC)CCN3C(=O)CN(C)C)nc2[nH]ccc12` gave a neurite formation score of 4.76.
